Results as given in PMC3254608, “Inscuteable Regulates the Pins-Mud Spindle Orientation Pathway” (PLoS ONE, 2012).
These are yes or no findings as the source states them, for the method shown. For part of these data: Binding calls can cover weak binding; strength is not graded here. For part of these data: Sequences can lack the tags named with a protein. For part of these data: Binding seen in cells or lysates may run through a third protein. Values belong to the molecule of their own block, whether it stands above or below them.

The chains behind the UniProt entries cited, without tags or fusion partners. Where a name states a change or a piece, a line headed by the entry shows the natural chain unless it says otherwise.
UniProt P31007: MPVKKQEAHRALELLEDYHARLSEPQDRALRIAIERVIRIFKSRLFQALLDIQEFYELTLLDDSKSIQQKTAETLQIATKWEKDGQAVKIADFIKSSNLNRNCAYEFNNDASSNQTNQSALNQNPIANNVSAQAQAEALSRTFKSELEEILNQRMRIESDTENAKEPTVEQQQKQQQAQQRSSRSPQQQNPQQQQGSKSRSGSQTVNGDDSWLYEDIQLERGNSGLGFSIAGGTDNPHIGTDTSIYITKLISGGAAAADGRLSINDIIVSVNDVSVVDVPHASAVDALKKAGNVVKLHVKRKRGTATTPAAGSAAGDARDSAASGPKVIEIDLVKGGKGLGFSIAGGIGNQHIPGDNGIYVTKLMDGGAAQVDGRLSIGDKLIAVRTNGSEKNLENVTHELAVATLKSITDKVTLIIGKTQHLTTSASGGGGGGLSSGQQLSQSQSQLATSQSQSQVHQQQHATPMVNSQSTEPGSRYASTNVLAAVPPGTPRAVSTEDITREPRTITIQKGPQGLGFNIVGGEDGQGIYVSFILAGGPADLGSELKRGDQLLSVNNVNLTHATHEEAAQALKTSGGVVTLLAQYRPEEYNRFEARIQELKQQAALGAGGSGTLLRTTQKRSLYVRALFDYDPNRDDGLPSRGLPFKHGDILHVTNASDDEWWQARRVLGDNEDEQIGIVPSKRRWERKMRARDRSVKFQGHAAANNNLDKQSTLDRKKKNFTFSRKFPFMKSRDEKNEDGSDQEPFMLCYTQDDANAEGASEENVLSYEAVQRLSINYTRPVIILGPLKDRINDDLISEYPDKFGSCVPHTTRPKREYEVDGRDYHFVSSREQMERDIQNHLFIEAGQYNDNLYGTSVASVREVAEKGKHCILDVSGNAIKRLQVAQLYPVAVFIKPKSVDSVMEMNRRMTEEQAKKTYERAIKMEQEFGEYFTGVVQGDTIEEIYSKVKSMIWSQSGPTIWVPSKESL

Key:
[1] = target: T1, Inscuteable (Insc), endogenous (Drosophila (endogenous in L3 larval brains)) (UniProt Q24367); experiment: co-IP; endogenous proteins from wild-type L3 larval brain extracts; antibodies on protein G sepharose; 50 mM HEPES pH 7.5/150 mM NaCl/1 mM DTT/0.1% Triton X-100; western blot
T1 sequence: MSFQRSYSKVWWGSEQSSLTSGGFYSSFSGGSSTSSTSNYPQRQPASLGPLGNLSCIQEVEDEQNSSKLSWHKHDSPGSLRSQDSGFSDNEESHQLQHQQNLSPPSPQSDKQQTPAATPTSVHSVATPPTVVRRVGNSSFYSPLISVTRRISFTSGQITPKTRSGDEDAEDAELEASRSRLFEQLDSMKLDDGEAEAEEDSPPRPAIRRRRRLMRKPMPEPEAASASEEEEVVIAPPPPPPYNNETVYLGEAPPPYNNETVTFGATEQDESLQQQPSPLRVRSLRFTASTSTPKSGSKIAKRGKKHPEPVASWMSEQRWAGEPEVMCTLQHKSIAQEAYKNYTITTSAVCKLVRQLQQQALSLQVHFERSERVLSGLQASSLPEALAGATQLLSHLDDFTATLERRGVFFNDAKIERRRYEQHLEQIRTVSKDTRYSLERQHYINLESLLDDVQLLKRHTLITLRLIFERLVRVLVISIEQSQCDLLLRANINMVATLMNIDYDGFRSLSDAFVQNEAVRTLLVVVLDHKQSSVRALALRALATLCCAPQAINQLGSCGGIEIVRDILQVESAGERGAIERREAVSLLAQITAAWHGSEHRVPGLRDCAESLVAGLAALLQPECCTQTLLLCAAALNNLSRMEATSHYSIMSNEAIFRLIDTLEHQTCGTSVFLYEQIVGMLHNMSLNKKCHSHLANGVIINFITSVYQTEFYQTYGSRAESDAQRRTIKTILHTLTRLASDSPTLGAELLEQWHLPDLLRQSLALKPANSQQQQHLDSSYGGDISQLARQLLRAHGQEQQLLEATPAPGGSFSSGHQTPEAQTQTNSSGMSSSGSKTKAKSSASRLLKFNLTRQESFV

[2] = target: T2, Partner of Inscuteable (Pins), endogenous (Drosophila (endogenous in L3 larval brains)) (UniProt Q9VB22); experiment: as above
T2 sequence: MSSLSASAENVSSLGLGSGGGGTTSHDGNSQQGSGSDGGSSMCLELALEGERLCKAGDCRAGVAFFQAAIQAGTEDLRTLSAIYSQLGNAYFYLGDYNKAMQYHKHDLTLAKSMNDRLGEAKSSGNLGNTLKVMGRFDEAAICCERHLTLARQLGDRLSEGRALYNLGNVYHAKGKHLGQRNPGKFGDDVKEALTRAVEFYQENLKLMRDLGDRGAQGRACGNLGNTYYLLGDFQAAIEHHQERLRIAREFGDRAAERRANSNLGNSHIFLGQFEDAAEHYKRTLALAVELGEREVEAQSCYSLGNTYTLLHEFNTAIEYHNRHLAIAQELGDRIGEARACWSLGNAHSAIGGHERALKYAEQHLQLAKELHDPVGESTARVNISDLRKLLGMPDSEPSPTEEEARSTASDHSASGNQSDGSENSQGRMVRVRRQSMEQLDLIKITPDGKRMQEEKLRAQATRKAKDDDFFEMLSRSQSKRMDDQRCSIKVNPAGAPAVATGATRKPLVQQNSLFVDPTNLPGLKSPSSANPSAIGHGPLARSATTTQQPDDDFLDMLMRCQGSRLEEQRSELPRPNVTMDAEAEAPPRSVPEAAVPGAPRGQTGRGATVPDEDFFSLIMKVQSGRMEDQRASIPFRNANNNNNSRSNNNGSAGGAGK

[3] = target: T3, GST-fusion of the Pins TPR region (residues 42-398) (Drosophila) (UniProt Q9VB22); experiment: pull-down; competition: GST-Pins TPRs on glutathione agarose, constant amount of Mud fragment, increasing MBP-Insc; 10 mM Hepes/100 mM NaCl/1 mM DTT, room temperature, 15 min; both purified
T3 sequence: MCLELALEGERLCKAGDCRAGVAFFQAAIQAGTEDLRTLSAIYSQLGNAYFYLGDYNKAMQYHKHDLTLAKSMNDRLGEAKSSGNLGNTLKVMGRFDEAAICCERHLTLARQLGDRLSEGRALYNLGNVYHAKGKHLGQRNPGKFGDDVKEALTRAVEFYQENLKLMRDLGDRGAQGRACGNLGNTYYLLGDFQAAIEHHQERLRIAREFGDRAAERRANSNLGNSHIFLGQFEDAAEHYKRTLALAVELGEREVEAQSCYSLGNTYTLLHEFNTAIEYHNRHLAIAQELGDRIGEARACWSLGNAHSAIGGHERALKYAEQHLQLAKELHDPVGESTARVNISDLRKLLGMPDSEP

[4] = target: Dlg GK domain (Drosophila) (UniProt P31007); experiment: pull-down; GST pull-down with Pins 1-466 (alone or pre-formed with MBP-Insc) treated in vitro with Aurora-A (30 min, room temperature), then added to the pull-down resin; Dlg GK domain; both purified
[5] = target: GST-Mud (residues 1825-2016) (Drosophila); experiment: pull-down; competition: GST-Mud on glutathione agarose, constant 2 uM Pins TPR, increasing MBP-Insc; 10 mM Hepes/100 mM NaCl/1 mM DTT, room temperature, 15 min; both purified
[6] = target: Mushroom body defect (Mud), endogenous (Drosophila (endogenous in L3 larval brains)); experiment: co-IP; endogenous proteins from wild-type L3 larval brain extracts; antibodies on protein G sepharose; 50 mM HEPES pH 7.5/150 mM NaCl/1 mM DTT/0.1% Triton X-100; western blot

Molecule: Mushroom body defect (Mud), endogenous
binding [1]: no binding
binding [2]: binds

Molecule: purified Mud fragment containing the minimal TPR binding domain (residues 1825-2016) (Drosophila) (domain or fragment)
binding [3]: binds

B3: Inscuteable (Insc), endogenous (protein, UniProt Q24367 1-859)
chain: MSFQRSYSKVWWGSEQSSLTSGGFYSSFSGGSSTSSTSNYPQRQPASLGPLGNLSCIQEVEDEQNSSKLSWHKHDSPGSLRSQDSGFSDNEESHQLQHQQNLSPPSPQSDKQQTPAATPTSVHSVATPPTVVRRVGNSSFYSPLISVTRRISFTSGQITPKTRSGDEDAEDAELEASRSRLFEQLDSMKLDDGEAEAEEDSPPRPAIRRRRRLMRKPMPEPEAASASEEEEVVIAPPPPPPYNNETVYLGEAPPPYNNETVTFGATEQDESLQQQPSPLRVRSLRFTASTSTPKSGSKIAKRGKKHPEPVASWMSEQRWAGEPEVMCTLQHKSIAQEAYKNYTITTSAVCKLVRQLQQQALSLQVHFERSERVLSGLQASSLPEALAGATQLLSHLDDFTATLERRGVFFNDAKIERRRYEQHLEQIRTVSKDTRYSLERQHYINLESLLDDVQLLKRHTLITLRLIFERLVRVLVISIEQSQCDLLLRANINMVATLMNIDYDGFRSLSDAFVQNEAVRTLLVVVLDHKQSSVRALALRALATLCCAPQAINQLGSCGGIEIVRDILQVESAGERGAIERREAVSLLAQITAAWHGSEHRVPGLRDCAESLVAGLAALLQPECCTQTLLLCAAALNNLSRMEATSHYSIMSNEAIFRLIDTLEHQTCGTSVFLYEQIVGMLHNMSLNKKCHSHLANGVIINFITSVYQTEFYQTYGSRAESDAQRRTIKTILHTLTRLASDSPTLGAELLEQWHLPDLLRQSLALKPANSQQQQHLDSSYGGDISQLARQLLRAHGQEQQLLEATPAPGGSFSSGHQTPEAQTQTNSSGMSSSGSKTKAKSSASRLLKFNLTRQESFV
binding [6]: no binding

The next lines start with the values.

binding [4]: binds
B1: in vitro Aurora-A phosphorylated Pins 1-466 (TPR+LINKER) (domain or fragment, UniProt Q9VB22 1-466)
chain: MSSLSASAENVSSLGLGSGGGGTTSHDGNSQQGSGSDGGSSMCLELALEGERLCKAGDCRAGVAFFQAAIQAGTEDLRTLSAIYSQLGNAYFYLGDYNKAMQYHKHDLTLAKSMNDRLGEAKSSGNLGNTLKVMGRFDEAAICCERHLTLARQLGDRLSEGRALYNLGNVYHAKGKHLGQRNPGKFGDDVKEALTRAVEFYQENLKLMRDLGDRGAQGRACGNLGNTYYLLGDFQAAIEHHQERLRIAREFGDRAAERRANSNLGNSHIFLGQFEDAAEHYKRTLALAVELGEREVEAQSCYSLGNTYTLLHEFNTAIEYHNRHLAIAQELGDRIGEARACWSLGNAHSAIGGHERALKYAEQHLQLAKELHDPVGESTARVNISDLRKLLGMPDSEPSPTEEEARSTASDHSASGNQSDGSENSQGRMVRVRRQSMEQLDLIKITPDGKRMQEEKLRAQATRKAK
modifications: phosphorylated by Aurora-A in the Linker domain (residue not given)

binding [5]: binds
B2: Pins TPR (residues 42-398), soluble (domain or fragment, UniProt Q9VB22 42-398)
chain: MCLELALEGERLCKAGDCRAGVAFFQAAIQAGTEDLRTLSAIYSQLGNAYFYLGDYNKAMQYHKHDLTLAKSMNDRLGEAKSSGNLGNTLKVMGRFDEAAICCERHLTLARQLGDRLSEGRALYNLGNVYHAKGKHLGQRNPGKFGDDVKEALTRAVEFYQENLKLMRDLGDRGAQGRACGNLGNTYYLLGDFQAAIEHHQERLRIAREFGDRAAERRANSNLGNSHIFLGQFEDAAEHYKRTLALAVELGEREVEAQSCYSLGNTYTLLHEFNTAIEYHNRHLAIAQELGDRIGEARACWSLGNAHSAIGGHERALKYAEQHLQLAKELHDPVGESTARVNISDLRKLLGMPDSEP
